Read-outs that look alike come from different tables or passages of the source.
What was measured:
[1] = perfume description from literature (S. Arctander, Perfume and Flavor Chemicals); cited from earlier work
[2] = Odor threshold value from diethyl phthalate (sensory panel); details: scale 1-13, 13 best possible evaluation
[3] = Impact from the fragrance strip (sensory panel); details: scale 1-9, 9 best possible evaluation
[4] = Substantivity/retention performance test on hair strands washed with shampoo (panel odor assessment); details: panel scale 0-6, 6 best possible evaluation
[5] = Intensity on air (sensory panel); details: scale 1-9, 9 best possible evaluation
Odor description = details: applicant's own description

SMILES: CC(=O)c1ccc(C)cc1 [p-methylacetophenone]
- odor [1]: floral odor of mimosa, cumarin und bitter almond

SMILES: CC(C)=CC1CC(C)CCO1 (stereo not drawn) [rose oxide]
- odor [1]: floral-geranium-like, green, hard

SMILES: CCc1ccc(C(C)=O)cc1 [p-ethylacetophenone]
- odor [1]: sweet, warm, pungent floral odor with a herbal-balsamic undertone

SMILES: C=C(C)[C@H]1CC=C(C)C(=O)C1 [D-carvone, nat., D-carvone]
- Odor threshold value (from diethyl phthalate) [2]: 4
- Impact (from the fragrance strip) [3]: 5
- Odor assessment of hair strand after shampoo wash ([4]; Damp hair): 2.3
- Odor assessment of hair strand after shampoo wash ([4]; Dry hair): 0.9
- Intensity (on air) [5]: 6

SMILES: CC(=O)c1ccc(C(C)C)cc1 [p-isopropylacetophenone]
- odor [1]: dry herbaceous and woody odor

SMILES: CC(=O)c1ccc(CC(C)C)cc1 [p-isobutylacetophenone]
- odor [1]: woody-hay-like note and high adherence

SMILES: Cc1cccc(C(=O)C(C)C)c1 [2,3′-dimethylpropiophenone (meta), 2,3′-dimethylpropiophenone]
- odor (Odor description): weaker than para and ortho, rosy, technical-grade

SMILES: Cc1ccc(C(=O)C(C)C)cc1 [2,4′-dimethylpropiophenone]
- Odor threshold value (from diethyl phthalate) [2]: 4
- Impact (from the fragrance strip) [3]: 5
- odor (Odor description): expressive rose oxide-like and herbal-like odor
- Odor assessment of hair strand after shampoo wash ([4]; Damp hair): 2.6
- Odor assessment of hair strand after shampoo wash ([4]; Dry hair): 1.9
- Intensity (on air) [5]: 6

SMILES: Cc1ccccc1C(=O)C(C)C [2,2′-dimethylpropiophenone (ortho), 2,2′-dimethylpropiophenone]
- odor (Odor description): stronger than meta, rosy, powdery, dusty

From patent US20090162308A1, “USE OF 2,4'-DIMETHYLPROPIOPHENONE AS A FRAGRANCE SUBSTANCE” (SYMRISE GmbH & Co. KG, priority 2007, published 2009)
